Converted amounts (≈) assume the structure as drawn. This continues a long series; more values of the same kind are listed elsewhere.
System: Pasteurella multocida
Experiment: minimum inhibitory concentration (MIC)
Description: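 Broth microdilution MIC (Sensititre BOPO7F bovine plate, CLSI methods) of 19 antimicrobials against field isolates of P. multocida, M. haemolytica, H. somni (deep nasopharyngeal swabs) and E. coli, Enterococcus spp. (rectal swabs) from weaned dairy heifers. Incubation 16-24 h at 35 C. MIC is the lowest concentration preventing visible growth. Values with <= or > lie at the tested range limits. Trimethoprim-sulfamethoxazole is given as the trimethoprim component of a 1:19 mixture.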

CC1(C)S[C@@H]2[C@H](NC(=O)[C@H](N)c3ccccc3)C(=O)N2[C@H]1C(=O)O [Ampicillin]
Conditions | minimum inhibitory concentration [µg/mL]
isolate (source animal id): 30 | ≤ 0.25
isolate (source animal id): 34 | ≤ 0.25
isolate (source animal id): 36 | ≤ 0.25
isolate (source animal id): 37 | ≤ 0.25
isolate (source animal id): 46 | ≤ 0.25
isolate (source animal id): 48 | ≤ 0.25
isolate (source animal id): 49 | ≤ 0.25
isolate (source animal id): 54 | ≤ 0.25
isolate (source animal id): 55 | ≤ 0.25
isolate (source animal id): 58 | ≤ 0.25
isolate (source animal id): 60 | ≤ 0.25
isolate (source animal id): 61 | 16 (≈ 45.8 µM)
isolate (source animal id): 63 | ≤ 0.25
isolate (source animal id): 64 | ≤ 0.25
isolate (source animal id): 65 | 16 (≈ 45.8 µM)
isolate (source animal id): 66 | ≤ 0.25
isolate (source animal id): 67 | ≤ 0.25
isolate (source animal id): 69 | ≤ 0.25
isolate (source animal id): 73 | ≤ 0.25
isolate (source animal id): 75 | ≤ 0.25
isolate (source animal id): 76 | ≤ 0.25
isolate (source animal id): 77 | ≤ 0.25
isolate (source animal id): 78 | ≤ 0.25
isolate (source animal id): 80 | ≤ 0.25
isolate (source animal id): 82 | ≤ 0.25
isolate (source animal id): 83 | ≤ 0.25
isolate (source animal id): 88 | ≤ 0.25
isolate (source animal id): 92 | ≤ 0.25
isolate (source animal id): 94 | ≤ 0.25
isolate (source animal id): 318 | ≤ 0.25
isolate (source animal id): 319 | ≤ 0.25
isolate (source animal id): 320 | ≤ 0.25
isolate (source animal id): 321 | ≤ 0.25
isolate (source animal id): 322 | ≤ 0.25
isolate (source animal id): 324 | ≤ 0.25
isolate (source animal id): 325 | ≤ 0.25
isolate (source animal id): 328 | ≤ 0.25
isolate (source animal id): 330 | ≤ 0.25
isolate (source animal id): 331 | ≤ 0.25
isolate (source animal id): 333 | ≤ 0.25
isolate (source animal id): 336 | ≤ 0.25
isolate (source animal id): 337 | ≤ 0.25
isolate (source animal id): 339 | 0.5 (≈ 1.43 µM)
isolate (source animal id): 340 | ≤ 0.25
isolate (source animal id): 341 | ≤ 0.25

CO/N=C(\C(=O)N[C@@H]1C(=O)N2C(C(=O)O)=C(CSC(=O)c3ccco3)CS[C@H]12)c1csc(N)n1 [Ceftiofur]
Conditions | minimum inhibitory concentration [µg/mL]
isolate (source animal id): 30 | ≤ 0.25
isolate (source animal id): 34 | ≤ 0.25
isolate (source animal id): 36 | ≤ 0.25
isolate (source animal id): 37 | ≤ 0.25
isolate (source animal id): 46 | ≤ 0.25
isolate (source animal id): 48 | ≤ 0.25
isolate (source animal id): 49 | ≤ 0.25
isolate (source animal id): 54 | ≤ 0.25
isolate (source animal id): 55 | ≤ 0.25
isolate (source animal id): 58 | ≤ 0.25
isolate (source animal id): 60 | ≤ 0.25
isolate (source animal id): 61 | ≤ 0.25
isolate (source animal id): 63 | ≤ 0.25
isolate (source animal id): 64 | ≤ 0.25
isolate (source animal id): 65 | ≤ 0.25
isolate (source animal id): 66 | ≤ 0.25
isolate (source animal id): 67 | ≤ 0.25
isolate (source animal id): 69 | ≤ 0.25
isolate (source animal id): 73 | ≤ 0.25
isolate (source animal id): 75 | ≤ 0.25
isolate (source animal id): 76 | ≤ 0.25
isolate (source animal id): 77 | ≤ 0.25
isolate (source animal id): 78 | ≤ 0.25
isolate (source animal id): 80 | ≤ 0.25
isolate (source animal id): 82 | ≤ 0.25
isolate (source animal id): 83 | ≤ 0.25
isolate (source animal id): 88 | ≤ 0.25
isolate (source animal id): 92 | ≤ 0.25
isolate (source animal id): 94 | ≤ 0.25
isolate (source animal id): 318 | ≤ 0.25
isolate (source animal id): 319 | ≤ 0.25
isolate (source animal id): 320 | ≤ 0.25
isolate (source animal id): 321 | ≤ 0.25
isolate (source animal id): 322 | ≤ 0.25
isolate (source animal id): 324 | ≤ 0.25
isolate (source animal id): 325 | ≤ 0.25
isolate (source animal id): 328 | ≤ 0.25
isolate (source animal id): 330 | ≤ 0.25
isolate (source animal id): 331 | ≤ 0.25
isolate (source animal id): 333 | ≤ 0.25
isolate (source animal id): 336 | ≤ 0.25
isolate (source animal id): 337 | ≤ 0.25
isolate (source animal id): 339 | ≤ 0.25
isolate (source animal id): 340 | ≤ 0.25
isolate (source animal id): 341 | ≤ 0.25

CCC[C@@H]1C[C@@H](C(=O)N[C@@H]([C@H]2O[C@H](SC)[C@H](O)[C@@H](O)[C@H]2O)[C@H](C)Cl)N(C)C1 [Clindamycin]
Conditions | minimum inhibitory concentration [µg/mL]
isolate (source animal id): 30 | > 16
isolate (source animal id): 34 | > 16
isolate (source animal id): 36 | > 16
isolate (source animal id): 37 | > 16
isolate (source animal id): 46 | > 16
isolate (source animal id): 48 | > 16
isolate (source animal id): 49 | > 16
isolate (source animal id): 54 | > 16
isolate (source animal id): 55 | > 16
isolate (source animal id): 58 | > 16
isolate (source animal id): 60 | > 16
isolate (source animal id): 61 | > 16
isolate (source animal id): 63 | > 16
isolate (source animal id): 64 | > 16
isolate (source animal id): 65 | > 16
isolate (source animal id): 66 | > 16
isolate (source animal id): 67 | > 16
isolate (source animal id): 69 | > 16
isolate (source animal id): 73 | > 16
isolate (source animal id): 75 | > 16
isolate (source animal id): 76 | > 16
isolate (source animal id): 77 | > 16
isolate (source animal id): 78 | > 16
isolate (source animal id): 80 | > 16
isolate (source animal id): 82 | > 16
isolate (source animal id): 83 | > 16
isolate (source animal id): 88 | > 16
isolate (source animal id): 92 | > 16
isolate (source animal id): 94 | > 16
isolate (source animal id): 318 | > 16
isolate (source animal id): 319 | > 16
isolate (source animal id): 320 | > 16
isolate (source animal id): 321 | > 16
isolate (source animal id): 322 | > 16
isolate (source animal id): 324 | > 16
isolate (source animal id): 325 | > 16
isolate (source animal id): 328 | > 16
isolate (source animal id): 330 | > 16
isolate (source animal id): 331 | > 16
isolate (source animal id): 333 | > 16
isolate (source animal id): 336 | > 16
isolate (source animal id): 337 | > 16
isolate (source animal id): 339 | > 16
isolate (source animal id): 340 | > 16
isolate (source animal id): 341 | > 16

CN1C[C@@H]2C[C@H]1CN2c1cc2c(cc1F)c(=O)c(C(=O)O)cn2C1CC1 [Danofloxacin]
Conditions | minimum inhibitory concentration [µg/mL]
isolate (source animal id): 30 | 1 (≈ 2.8 µM)
isolate (source animal id): 34 | > 1
isolate (source animal id): 36 | > 1
isolate (source animal id): 37 | > 1
isolate (source animal id): 46 | ≤ 0.12
isolate (source animal id): 48 | > 1
isolate (source animal id): 49 | > 1
isolate (source animal id): 54 | > 1
isolate (source animal id): 55 | > 1
isolate (source animal id): 58 | > 1
isolate (source animal id): 60 | > 1
isolate (source animal id): 61 | > 1
isolate (source animal id): 63 | > 1
isolate (source animal id): 64 | > 1
isolate (source animal id): 65 | > 1
isolate (source animal id): 66 | > 1
isolate (source animal id): 67 | > 1
isolate (source animal id): 69 | > 1
isolate (source animal id): 73 | 1 (≈ 2.8 µM)
isolate (source animal id): 75 | > 1
isolate (source animal id): 76 | > 1
isolate (source animal id): 77 | 1 (≈ 2.8 µM)
isolate (source animal id): 78 | > 1
isolate (source animal id): 80 | > 1
isolate (source animal id): 82 | > 1
isolate (source animal id): 83 | > 1
isolate (source animal id): 88 | ≤ 0.12
isolate (source animal id): 92 | 1 (≈ 2.8 µM)
isolate (source animal id): 94 | > 1
isolate (source animal id): 318 | ≤ 0.12
isolate (source animal id): 319 | ≤ 0.12
isolate (source animal id): 320 | > 1
isolate (source animal id): 321 | > 1
isolate (source animal id): 322 | > 1
isolate (source animal id): 324 | > 1
isolate (source animal id): 325 | > 1
isolate (source animal id): 328 | > 1
isolate (source animal id): 330 | > 1
isolate (source animal id): 331 | ≤ 0.12
isolate (source animal id): 333 | ≤ 0.12
isolate (source animal id): 336 | > 1
isolate (source animal id): 337 | > 1
isolate (source animal id): 339 | > 1
isolate (source animal id): 340 | ≤ 0.12
isolate (source animal id): 341 | ≤ 0.12
